Laboratory results taken from US20170290889A1, “METHODS AND COMPOSITIONS FOR TREATING DYSBIOSIS AND GASTROINTESTINAL AND INFLAMMATORY DISORDERS” (New York University, priority 2016, published 2017).

Tested on: gut microbiota
Details: Orang Asli stool, post vs pre treatment with Albendazole

## CCCSc1ccc2nc(NC(=O)OC)[nH]c2c1 [albendazole]
  Bacteroidales (Prevotella) abundance by LEfSe: significantly expanded
